Among the data in paper PMC8674265 are binding values, retold here.

This experiment addresses T1, ELM2 and SANT domain-containing protein 1 (ELMSAN1) (human (endogenous in HEK293T and Hela.cl1)) (UniProt Q6PJG2).
T1 sequence: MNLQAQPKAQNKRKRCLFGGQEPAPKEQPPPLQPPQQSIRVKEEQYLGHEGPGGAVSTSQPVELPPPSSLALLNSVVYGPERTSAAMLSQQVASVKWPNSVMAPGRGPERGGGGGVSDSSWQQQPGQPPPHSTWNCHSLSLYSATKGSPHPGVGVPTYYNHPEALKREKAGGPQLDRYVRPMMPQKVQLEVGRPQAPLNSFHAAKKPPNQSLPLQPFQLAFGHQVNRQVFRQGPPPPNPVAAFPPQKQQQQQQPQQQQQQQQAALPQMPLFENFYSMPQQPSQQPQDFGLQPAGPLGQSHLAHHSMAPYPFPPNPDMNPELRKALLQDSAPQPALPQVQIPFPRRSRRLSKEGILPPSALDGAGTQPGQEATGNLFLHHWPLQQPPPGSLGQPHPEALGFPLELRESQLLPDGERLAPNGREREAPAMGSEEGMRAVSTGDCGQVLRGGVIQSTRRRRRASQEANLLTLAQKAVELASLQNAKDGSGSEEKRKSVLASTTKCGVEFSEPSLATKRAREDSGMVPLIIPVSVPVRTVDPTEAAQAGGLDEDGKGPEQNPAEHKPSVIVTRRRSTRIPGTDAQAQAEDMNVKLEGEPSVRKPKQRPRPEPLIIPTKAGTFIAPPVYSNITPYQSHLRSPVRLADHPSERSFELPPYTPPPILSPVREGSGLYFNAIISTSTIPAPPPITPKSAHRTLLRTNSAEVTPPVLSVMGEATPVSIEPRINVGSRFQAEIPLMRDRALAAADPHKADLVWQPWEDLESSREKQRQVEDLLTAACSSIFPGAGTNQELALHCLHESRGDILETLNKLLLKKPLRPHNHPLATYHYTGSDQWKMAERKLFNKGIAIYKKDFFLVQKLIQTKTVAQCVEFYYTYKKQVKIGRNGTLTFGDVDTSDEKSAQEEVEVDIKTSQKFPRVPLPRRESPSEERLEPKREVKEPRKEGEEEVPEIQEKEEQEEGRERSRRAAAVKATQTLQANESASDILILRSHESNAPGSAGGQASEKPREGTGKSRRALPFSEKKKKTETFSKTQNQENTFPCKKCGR
The experiment is described as follows: affinity purification with mass spectrometry; HEK293T nuclear extract precipitated with 5 µg rabbit anti-ELMSAN1 antibody and protein A magnetic beads, eluted with 0.5 M ammonium hydroxide, LC-MS/MS; controls water or normal rabbit IgG; enrichment by spectral counts and SAINT (FC-A > 1); four experiments.

These are yes or no findings as the source states them, for the method shown. In cells and extracts the contact can be indirect. These calls come from enrichment with a bait or labelling near it, and not all partners need be listed. A no says only that the protein was not detected with the bait.

B1: SUV39H1 (protein, UniProt O43463 1-412)
chain: MAENLKGCSVCCKSSWNQLQDLCRLAKLSCPALGISKRNLYDFEVEYLCDYKKIREQEYYLVKWRGYPDSESTWEPRQNLKCVRILKQFHKDLERELLRRHHRSKTPRHLDPSLANYLVQKAKQRRALRRWEQELNAKRSHLGRITVENEVDLDGPPRAFVYINEYRVGEGITLNQVAVGCECQDCLWAPTGGCCPGASLHKFAYNDQGQVRLRAGLPIYECNSRCRCGYDCPNRVVQKGIRYDLCIFRTDDGRGWGVRTLEKIRKNSFVMEYVGEIITSEEAERRGQIYDRQGATYLFDLDYVEDVYTVDAAYYGNISHFVNHSCDPNLQVYNVFIDNLDERLPRIAFFATRTIRAGEELTFDYNMQVDPVDMESTRMDSNFGLAGLPGSPKKRVRIECKCGTESCRKYLF
For the molecule B1, the binding entry is “no binding”.
